# Test results: PubChem BioAssay AID493014 (National Center for Advancing Translational Sciences (NCATS), 2011)
# The list shows a part of the results. Further columns of the screen follow, without active or inactive calls. Most of these compounds were active or inconclusive in the main read-out, so they are no random draw. Words in brackets tell the shape of the fitted curve; partial curves, single points and poor fits give uncertain potencies.
# Experiment: qHTS Assay to Find Inhibitors of Chronic Active B-Cell Receptor Signaling
# Conditions: ABC-DLBCL IkBa-CBG/CBR reporter, luminescence ratio (green luciferase fused to IkBa over red control in TMD8 lymphoma cells), 4 h
# How it was run: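 Concentration-response series (up to 46 uM) were applied to TMD8 dual-reporter cells for 4 h at 37C with doxycycline. Green/red ratio, after filter-overlap correction, defined %Activity; red signal alone was normalised to basal cells and zero luminescence.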
# [1] = measured here: CBR red luminescence, cell number
# [2] = measured here: IkBa-CBG green luminescence
SMILES,AC50 [1],AC50 [2]
CN1CCCN(C(c2ccccc2)c2ccc(Cl)cc2)CC1 (centres undefined),"1 µM [falling, full curve, poor fit]",
CC1=Nc2ccccc2/C1=C/c1sc(=N)n(-c2nccs2)c1O,"35.5 µM [rising, single point]","35.5 µM [falling, single point]"
CC1(C)Cc2[nH]c(=S)c(C#N)cc2CO1,"7.94 µM [falling, partial curve]",
C[C@@H]1C[C@H]2[C@@H]3CCC4=CC(=O)C=C[C@]4(C)[C@@]3(Cl)[C@@H](O)C[C@]2(C)[C@@]1(OC(=O)c1ccco1)C(=O)CCl,"16.4 µM [falling, single point]",
CCN1CCN(c2ncc3c(n2)CC(c2cc(OC)c(OC)c(OC)c2)CC3=O)CC1 (centres undefined),"23.1 µM [rising, single point]",
O=C(N/N=C/c1oc(O)c2ccccc12)c1ccccc1O,"2 µM [falling, full curve]",
O=C(CSc1nnc(NC(=O)c2c(F)cccc2F)s1)NCc1ccc(F)cc1,"0.92 µM [falling, full curve, poor fit]",
CCCCCn1c(NC(=O)c2ccco2)c(S(=O)(=O)c2ccc(C)cc2)c2nc3ccccc3nc21,"15.8 µM [falling, partial curve, poor fit]",
O=C(NC1CCCCCC1)C1CC(=O)N(c2ccc(Cl)cc2)C1 (centres undefined),"14.1 µM [falling, single point]",
C/C(=N/NC(=O)c1ccco1)c1ccc(Br)s1,"12.6 µM [rising, partial curve, poor fit]",
O=C1c2c(O)cc(O)cc2O[C@H](c2ccc(O)c(O)c2)[C@@H]1O,"35.5 µM [falling, single point]",
c1ccc(COc2ccc(-c3csnn3)cc2)cc1,"0.251 µM [rising, full curve, poor fit]",
CCOC(=O)c1nnn(-c2ccc([N+](=O)[O-])cc2)c1C,"12.6 µM [rising, partial curve, poor fit]",
CCC(C(=O)N1CCN(c2ccccn2)CC1)n1nc(C)n2c(cc3occc32)c1=O (centres undefined),"35.5 µM [falling, single point]",
CN=c1scc(C)n1/N=C/c1ccc(O)cc1,"18.4 µM [falling, single point]",
CN(Cc1ccccc1)S(=O)(=O)c1ccc(Cl)c(C(=O)NCc2ccc3c(c2)OCO3)c1,"16.4 µM [rising, partial curve]",
Cc1ccc(C)c(NC(=S)Nc2cccc3cnccc23)c1,"0.891 µM [rising, full curve, poor fit]",
O=c1c(Cc2c(F)cccc2Cl)c(O)ccn1C1CC1,"0.708 µM [rising, full curve, poor fit]",
Cc1[nH]c2ccccc2c1/C=N/NC(=O)c1ccccc1,"12.6 µM [falling, partial curve]",
O=C(CN1C(=O)c2ccccc2C1=O)Nc1ccc(-c2nc3ccccc3o2)cc1,"18.4 µM [falling, single point]",

SMILES,AC50 [1],AC50 [2]
COc1ccccc1NC(=O)Nc1nc2ccc(S(N)(=O)=O)cc2s1,"1.26 µM [falling, full curve]",
O=C(N/N=C/c1cccc(O)c1)c1ccc2c(c1)OCCO2,"11.2 µM [falling, partial curve]",
Cc1cccc(-n2c(SCC(N)=O)nc3c(c2=O)C2(CCCC2)Cc2ccccc2-3)c1,"18.4 µM [falling, partial curve]","20.6 µM [rising, partial curve, poor fit]"
Clc1c(CSc2nc3ccccc3o2)nc2sccn12,"1.03 µM [rising, full curve, poor fit]","16.4 µM [falling, single point]"
O=[N+]([O-])c1ccc2nn(Cc3ccccc3)cc2c1,"6.31 µM [falling, partial curve]",
CS(=O)(=O)N1CCC(C(=O)NCc2ccc(F)cc2Cl)CC1,"6.51 µM [falling, single point]",
Cc1ccccc1NC(=O)N(C(C)C)C(C)C,"0.411 µM [falling, partial curve, poor fit]",
CCc1ccc(Nc2n[n+](-c3ccccc3)c(-c3c(Cl)cccc3Cl)s2)cc1,"22.4 µM [falling, single point]",
Cc1ccc(S(=O)(=O)N(Cc2ccccc2)Cc2ccco2)cc1,"29.1 µM [rising, single point]",
O=C(NC12CC3CC(CC(C3)C1)C2)c1ccc(-c2cccc(Cl)c2)o1,"29.1 µM [rising, single point]",
CN(C)c1ccc(-n2cccc2/C=C2/SC(=Nc3ccc(F)cc3)NC2=O)cc1,"0.355 µM [falling, full curve, poor fit]",
O=C(O)Cc1sc(N/N=C\c2ccccc2)nc1-c1ccccc1,"8.2 µM [falling, partial curve, poor fit]",
Cc1[nH]nc2c1C(c1ccsc1)C(C#N)=C(N)O2 (centres undefined),"18.4 µM [falling, single point]",
COc1ccc(CCNS(=O)(=O)c2ccc3c(c2)CCCC3)cc1OC,"29.1 µM [falling, single point]",
O=C(c1ccncc1)N1N=C(c2ccc(Br)cc2)CC1c1ccccc1O (centres undefined),"8.91 µM [falling, partial curve]",
Cc1ccc(Cl)cc1NC(=O)COC(=O)CC1CC2CCC1C2 (centres undefined),"20.6 µM [falling, single point]",
CC(=O)c1ccc(NC(=O)CN2C(=O)NC(C)(c3ccc4c(c3)OCCO4)C2=O)cc1 (centres undefined),"13 µM [rising, partial curve]","23.1 µM [falling, single point]"
CCSc1ncccc1-c1nc2ccccc2[nH]1,"0.651 µM [falling, full curve]",
O=C(NCCCN1CCOCC1)C1CCN(S(=O)(=O)c2ccccc2)CC1,"29.1 µM [rising, partial curve, poor fit]",
O=C(NCC1CCCO1)c1c(O)c2c([nH]c1=O)CCCC2 (centres undefined),"20 µM [rising, single point]",

# A different layout for some results above:
SMILES	AC50 [1]	AC50 [2]
CS(=O)(=O)N1CCC(C(=O)NCc2ccc(F)cc2Cl)CC1	6.51 µM [falling, single point]	
Cc1ccccc1NC(=O)N(C(C)C)C(C)C	0.411 µM [falling, partial curve, poor fit]	
CCc1ccc(Nc2n[n+](-c3ccccc3)c(-c3c(Cl)cccc3Cl)s2)cc1	22.4 µM [falling, single point]	
Cc1ccc(S(=O)(=O)N(Cc2ccccc2)Cc2ccco2)cc1	29.1 µM [rising, single point]	
O=C(NC12CC3CC(CC(C3)C1)C2)c1ccc(-c2cccc(Cl)c2)o1	29.1 µM [rising, single point]	
CN(C)c1ccc(-n2cccc2/C=C2/SC(=Nc3ccc(F)cc3)NC2=O)cc1	0.355 µM [falling, full curve, poor fit]	
O=C(O)Cc1sc(N/N=C\c2ccccc2)nc1-c1ccccc1	8.2 µM [falling, partial curve, poor fit]	
Cc1[nH]nc2c1C(c1ccsc1)C(C#N)=C(N)O2 (centres undefined)	18.4 µM [falling, single point]	
COc1ccc(CCNS(=O)(=O)c2ccc3c(c2)CCCC3)cc1OC	29.1 µM [falling, single point]	
O=C(c1ccncc1)N1N=C(c2ccc(Br)cc2)CC1c1ccccc1O (centres undefined)	8.91 µM [falling, partial curve]	
